## Library screening results

Amino acid sequences for entries named in this document (tags omitted).
UniProt E9BF75, entry or part of it: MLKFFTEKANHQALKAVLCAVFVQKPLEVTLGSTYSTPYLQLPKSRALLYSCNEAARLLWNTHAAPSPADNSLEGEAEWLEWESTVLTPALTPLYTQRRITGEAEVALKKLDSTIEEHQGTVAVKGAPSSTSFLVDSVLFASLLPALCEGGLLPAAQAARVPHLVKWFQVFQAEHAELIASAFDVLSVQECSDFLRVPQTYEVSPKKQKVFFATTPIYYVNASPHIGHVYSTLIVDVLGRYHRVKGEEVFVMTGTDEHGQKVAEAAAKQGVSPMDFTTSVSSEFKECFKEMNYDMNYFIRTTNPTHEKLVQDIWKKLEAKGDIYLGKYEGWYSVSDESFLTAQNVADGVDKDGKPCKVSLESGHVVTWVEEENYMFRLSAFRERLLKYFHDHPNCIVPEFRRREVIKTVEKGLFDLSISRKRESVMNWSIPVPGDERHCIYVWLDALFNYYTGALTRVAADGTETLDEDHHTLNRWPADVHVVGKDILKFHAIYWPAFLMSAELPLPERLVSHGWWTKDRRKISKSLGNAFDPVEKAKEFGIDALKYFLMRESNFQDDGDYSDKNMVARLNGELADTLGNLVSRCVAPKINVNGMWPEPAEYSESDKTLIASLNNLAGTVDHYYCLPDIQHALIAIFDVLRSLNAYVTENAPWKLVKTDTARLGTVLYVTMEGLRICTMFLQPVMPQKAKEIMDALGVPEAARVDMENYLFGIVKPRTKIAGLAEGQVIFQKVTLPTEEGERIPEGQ

Source: ChEMBL document CHEMBL3988442, “University of Dundee, Small-Polar-MMV Screening Library” (2021).

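Primary screen of methionyl-tRNA synthetase; the read-out is not stated. Target: Methionyl-tRNA synthetase (putative), Leishmania donovani (UniProt E9BF75). The test concentration is not given. Values are per cent inhibition. Of about 68,000 compounds tested this way, about 24 (0.035%) reached 50% or more in at least one test.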

All values are in %.
How 0% and 100% were set is not recorded. Most values in the screen are low, and negative values occur.
This is an unselected part of the compounds tested.

structure	inhibition
Cn1ccnc1CN1CCCN(C(=O)c2ccc3c(c2)COC3)CC1	7.087
CN(Cc1cccnc1)[C@@H]1CN(CC2CC2)[C@@H]2CCCO[C@H]12	16.32
Cc1nc(C2CCCN(S(C)(=O)=O)C2)sc1Br (stereo unspecified)	5.774
O=C(N1CCOCC1)N1CCN(c2ccncc2Cl)CC1	16.85
COC(=O)C(C)NCc1ccc2[nH]c(C)c(C)c2c1 (stereo unspecified)	3.436
O=C1CCc2cc(-c3csc(CCN4CCOC4=O)n3)ccc2N1	16.87
Cc1cc(NC(=O)CCN2CCCCC2Cn2cncn2)no1 (stereo unspecified)	18.8
COCCN1C[C@@H]2CN(Cc3cccc(C)n3)C[C@@H]2C1=O	9.091
CC(C)c1nc(CC(=O)Nc2nc(CN3CCCCCC3)cs2)cs1	29.86
CCCc1noc(C(C)S(=O)(=O)Cc2nc(C3CC3)no2)n1 (stereo unspecified)	3.623
CCOCC1CN(CCN(C)C)Cc2cnn(CC3CCCC3)c21 (stereo unspecified)	14.38
O=C(CCNC(=O)NC1CCN(C2CC2)CC1)NCc1ccccc1	3.958
CCC(NC(=O)NCc1cccc(N(C)C)n1)c1nccs1 (stereo unspecified)	-5.666
CCCn1cc(C(=O)NC(C(=O)O)c2ccccc2C(F)(F)F)c(C)n1 (stereo unspecified)	6.267
CC(C)(O)CN1CCN(C(=O)c2cccc(CC#N)c2)CC1	15.06
CC(C)c1n[nH]c(C2CN(C(=O)c3ccnc(C4CC4)n3)CCO2)n1 (stereo unspecified)	7.735
O=C(NCCn1cccc1)C1CCCOC1 (stereo unspecified)	19.93
Cc1cc(N(C)CCn2ccnc2C)n2nccc2n1	11.2
O=C(c1ccc(S(=O)(=O)NCc2ccncc2)cc1)N1CCNCC1	13.56
CNc1nc(CNC(=O)Nc2cccc(OC)c2)cs1	8.571
COc1ccc(-n2ncc(C(=O)NCC3COC(C)(C)O3)c2N)cc1 (stereo unspecified)	7.343
OC1(CNCCSc2ccccn2)CNCCOC1 (stereo unspecified)	6.452
COc1cccc(C)c1C(=O)N1C[C@@H](CN(C)C)[C@@H](CO)C1	10.24
CCC1=NC(SCC(=O)c2ccc(OC)cc2)c2cc(CC)sc2N1 (stereo unspecified)	8.794
Cc1ccc(CN2CCCn3c(nc(Cn4cncn4)cc3=O)C2)s1	14.16
CN(C)c1cncc(C2CCN(CC3(O)CCCCC3)CC2)n1	-2.083
O=C(CCn1cccn1)N1CCC(c2nnc(-c3ccsc3)o2)CC1	5.814
CCN(C)C1COC2(CCN(C(=O)c3ccc4[nH]ccc4c3)CC2)C1 (stereo unspecified)	5.556
O=C(C[S+]([O-])Cc1ccc(F)cc1)N1CCc2sccc2C1 (stereo unspecified)	7.519
c1cncc(C2COC3(CCN(CC4CCOCC4)CC3)C2)c1 (stereo unspecified)	9.137
Fc1cnc(N2CCC3(COCc4cnc(NCC5CC5)nc43)C2)nc1 (stereo unspecified)	11.5
Cc1n[nH]c(C)c1CNC(=O)c1cn(CCC2CCCCN2)nn1 (stereo unspecified)	12.73
CCc1nnc(CN(C)C(=O)C(CC)n2c(CC)nc3ccccc32)o1 (stereo unspecified)	10.99
CC(C)c1cc(N2CCC[C@H](N)C2)n2nccc2n1	19.23
O=C(C(c1ccc(F)cc1)N1CCCCC1)N1CCn2cncc2C1 (stereo unspecified)	16.84
CCC(=O)Nc1ccc(OCC(=O)N(C)C(C)c2ccon2)cc1 (stereo unspecified)	8.01
Cc1ccc(N2CCC3(CC2)CC(OCC(C)C)C3)nn1	14.01
CCN(C(=O)c1nc2c(s1)CCCN2Cc1ccccc1)C(C)C	21.25
Cn1nnc2c1C(COCc1ccccn1)CN(Cc1ccoc1)C2 (stereo unspecified)	3.268
Cn1nc(C2CNCCO2)cc1CCOc1ccc(C(F)(F)F)cc1 (stereo unspecified)	20.74
Cc1nccn1Cc1nnc(C2CCCN(c3ncccn3)C2)n1C (stereo unspecified)	5.81
CC(Cn1cccn1)NC(=O)NCc1cccnc1OC1CCCC1 (stereo unspecified)	11.19
CC(C)CN(Cc1nc2c(cnn2C)c(=O)[nH]1)C(C)C	14.72
O=C(CCCc1nnc(-c2ccccc2)o1)N1CCN(CCO)CC1	5.164
O=C(C1CCCN(C2CCOCC2)C1)N1Cc2ccccc2C1 (stereo unspecified)	-0.3115